The list shows a part of the results. Many values rest on one well or one pass, so single values are uncertain.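 Imaging used 1,536-well plates; nuclei positive for cleaved PARP by antibody were divided by total DNA-stained nuclei to yield the apoptosis fraction. Doses for screening kept most cells viable, and cell lines differ markedly in resting and induced cleaved-PARP levels.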
Legend:
Assay in all cases: cleaved PARP positive nuclei fraction relative to DMSO control; melanoma cells; higher = more apoptosis
Conditions in all cases: library dose: low library concentration; 72 h
[1] = system: 501Mel
[2] = system: A101D
[3] = system: A2058
[4] = system: A375
[5] = system: C32
[6] = system: CBRC008 (line from a melanoma biopsy)
[7] = system: CBRC014 (line from a melanoma biopsy)
[8] = system: CBRC016 (line from a melanoma biopsy)
[9] = system: CBRC017 (line from a melanoma biopsy)
[10] = system: CBRC034 (line from a melanoma biopsy)
[11] = system: COLO792
[12] = system: COLO800
[13] = system: COLO829
[14] = system: G361
[15] = system: IPC-298
[16] = system: IST-MEL1
[17] = system: LB2518-MEL
[18] = system: LOXIMVI
[19] = system: MEL-HO

SMILES	cleaved PARP positive nuclei fraction [1]	cleaved PARP positive nuclei fraction [2]	cleaved PARP positive nuclei fraction [3]	cleaved PARP positive nuclei fraction [4]	cleaved PARP positive nuclei fraction [5]	cleaved PARP positive nuclei fraction [6]	cleaved PARP positive nuclei fraction [7]	cleaved PARP positive nuclei fraction [8]	cleaved PARP positive nuclei fraction [9]	cleaved PARP positive nuclei fraction [10]	cleaved PARP positive nuclei fraction [11]	cleaved PARP positive nuclei fraction [12]	cleaved PARP positive nuclei fraction [13]	cleaved PARP positive nuclei fraction [14]	cleaved PARP positive nuclei fraction [15]	cleaved PARP positive nuclei fraction [16]	cleaved PARP positive nuclei fraction [17]	cleaved PARP positive nuclei fraction [18]	cleaved PARP positive nuclei fraction [19]
CNC(=O)c1cc(Oc2ccc(NC(=O)Nc3ccc(Cl)c(C(F)(F)F)c3)cc2)ccn1 [sorafenib] + CC(=O)c1c(C)c2cnc(Nc3ccc(N4CCNCC4)cn3)nc2n(C2CCCC2)c1=O [palbociclib] (first compound 0.4 µM, partner dose 0.04 µM)	117%	411%	99.2%	89.8%	105%	110%	123%	168%	120%	99.7%	95.7%	40.3%	96.9%	45.5%	104%	80%	118%	43.2%	47.3%
Cc1cc(Nc2cc(N3CCN(C)CC3)nc(/C=C/c3ccccc3)n2)n[nH]1 + COCC[n+]1c2c(n(Cc3cnccn3)c1C)C(=O)c1ccccc1C2=O [YM155] (first compound 0.04 µM, partner dose 0.0004 µM)	91.8%	48.7%	103%	139%	92.8%	162%	93.8%	106%	100%	107%	87%	93.5%	89.2%	59.6%	45.5%	211%	112%	200%	121%
O=C(O)[C@@H]1[O][Sb](=[O])([O][Sb]2(=[O])[O][C@H]([C@H](O)CO)[C@H](O)[C@H](C(=O)O)[O]2)[O][C@H]([C@H](O)CO)[C@@H]1O (stereo partly drawn) [stibogluconate] + Nc1nc(F)nc2c1ncn2[C@@H]1O[C@H](CO)[C@@H](O)[C@@H]1O [fludarabine] (first compound 2 µM, partner dose 0.2 µM)	20200%	133%	59.8%	3000%	95.2%	108%	95.4%	124%	92.9%	60%	129%	75.3%	147%	75.2%	116%	71.4%	127%	108%	72.2%
CCCS(=O)(=O)Nc1ccc(F)c(C(=O)c2c[nH]c3ncc(Cl)cc23)c1F + C[C@]1(c2nc3c(C(N)=O)cccc3[nH]2)CCCN1 [Veliparib] (first compound 0.08 µM, partner dose 1.4 µM)	74.3%	47.6%	227%	177%	94.9%	109%	109%	162%	120%	29.6%	65.2%	168%	214%	143%	98.6%	234%	112%	83.8%	68.2%
Nc1ncn([C@H]2C[C@H](O)[C@@H](CO)O2)c(=O)n1 [decitabine] + Cc1nc(Nc2ncc(C(=O)Nc3c(C)cccc3Cl)s2)cc(N2CCN(CCO)CC2)n1 [dasatanib] (first compound 0.1 µM, partner dose 0.004 µM)	101%	109%	198%	75.9%	286%	138%	125%	66.6%	143%	535%	235%	239%	139%	161%	143%	104%	64.2%	203%	105%
CC(C)C[C@H](NC(=O)[C@H](Cc1ccccc1)NC(=O)c1cnccn1)B(O)O [Bortezomib] + Nc1ncn([C@H]2C[C@H](O)[C@@H](CO)O2)c(=O)n1 [decitabine] (first compound 0.001 µM, partner dose 0.1 µM)	12100%	536%	66.9%	92.6%	90.5%	1360%	492%	969%	658%	381%	62.7%	96.2%	186%	2820%	231%	101%	1370%	190%	225%
CC(C)C[C@H](NC(=O)[C@H](Cc1ccccc1)NC(=O)c1cnccn1)B(O)O [Bortezomib] + CC(=O)c1c(C)c2cnc(Nc3ccc(N4CCNCC4)cn3)nc2n(C2CCCC2)c1=O [palbociclib] (first compound 0.001 µM, partner dose 0.04 µM)	9520%	1110%	111%	114%	104%	2430%	203%	3610%	387%	1150%	141%	155%	177%	6370%	235%	91.1%	517%	430%	238%
C[C@@H](Oc1cc(-c2cnn(C3CCNCC3)c2)cnc1N)c1c(Cl)ccc(F)c1Cl [Crizotinib] + CN1CCN(c2ccc3nc(-c4c(N)c5c(F)cccc5[nH]c4=O)[nH]c3c2)CC1 [Dovitinib] (first compound 0.2 µM, partner dose 0.1 µM)	115%	139%	241%	101%	81.2%	161%	116%	28.7%	96.9%	141%	74.6%	90.8%	137%	125%	43.2%	127%	139%	95.3%	42.1%
CN1CCN(c2ccc3nc(-c4c(N)c5c(F)cccc5[nH]c4=O)[nH]c3c2)CC1 [Dovitinib] + CNC(=O)c1cc(Oc2ccc(NC(=O)Nc3ccc(Cl)c(C(F)(F)F)c3)cc2)ccn1 [sorafenib] (first compound 0.1 µM, partner dose 0.4 µM)	148%	79.9%	130%	119%	73%	72.1%	79.5%	39.9%	78.2%	127%	46.4%	97.7%	51.2%	109%	48.4%	195%	84.3%	194%	125%
CC(C)C[C@H](NC(=O)[C@H](Cc1ccccc1)NC(=O)c1cnccn1)B(O)O [Bortezomib] + CN1CCN(c2ccc3nc(-c4c(N)c5c(F)cccc5[nH]c4=O)[nH]c3c2)CC1 [Dovitinib] (first compound 0.001 µM, partner dose 0.1 µM)	1180%	1400%	169%	139%	85.7%	2860%	193%	1460%	488%	213%	110%	106%	344%	8870%	106%	176%	708%	325%	74.7%
CC(C)C[C@H](NC(=O)[C@H](Cc1ccccc1)NC(=O)c1cnccn1)B(O)O [Bortezomib] + C[C@@H](Oc1cc(-c2cnn(C3CCNCC3)c2)cnc1N)c1c(Cl)ccc(F)c1Cl [Crizotinib] (first compound 0.001 µM, partner dose 0.2 µM)	414%	625%	108%	257%	92.7%	709%	189%	952%	213%	605%	15.2%	136%	309%	3330%	126%	52.4%	798%	74.9%	184%
O=C(O)c1ccc2c(c1)nc(Nc1cccc(Cl)c1)c1ccncc12 + OCc1c[nH]c2ccccc12 [Indole-3-carbinol] (first compound 0.4 µM, partner dose 0.8 µM)	103%	36.1%	220%	197%	167%	56.5%	111%	184%	182%	62.1%	96.7%	69.9%	81.4%	93.4%	122%	51.2%	56.1%	69.8%	106%

Reprinted at random: two entries already listed
SMILES	cleaved PARP positive nuclei fraction [1]	cleaved PARP positive nuclei fraction [2]	cleaved PARP positive nuclei fraction [3]	cleaved PARP positive nuclei fraction [4]	cleaved PARP positive nuclei fraction [5]	cleaved PARP positive nuclei fraction [6]	cleaved PARP positive nuclei fraction [7]	cleaved PARP positive nuclei fraction [8]	cleaved PARP positive nuclei fraction [9]	cleaved PARP positive nuclei fraction [10]	cleaved PARP positive nuclei fraction [11]	cleaved PARP positive nuclei fraction [12]	cleaved PARP positive nuclei fraction [13]	cleaved PARP positive nuclei fraction [14]	cleaved PARP positive nuclei fraction [15]	cleaved PARP positive nuclei fraction [16]	cleaved PARP positive nuclei fraction [17]	cleaved PARP positive nuclei fraction [18]	cleaved PARP positive nuclei fraction [19]
O=C(O)c1ccc2c(c1)nc(Nc1cccc(Cl)c1)c1ccncc12 + OCc1c[nH]c2ccccc12 [Indole-3-carbinol] (first compound 0.4 µM, partner dose 0.8 µM)	103%	36.1%	220%	197%	167%	56.5%	111%	184%	182%	62.1%	96.7%	69.9%	81.4%	93.4%	122%	51.2%	56.1%	69.8%	106%
CC(C)C[C@H](NC(=O)[C@H](Cc1ccccc1)NC(=O)c1cnccn1)B(O)O [Bortezomib] + Nc1ncn([C@H]2C[C@H](O)[C@@H](CO)O2)c(=O)n1 [decitabine] (first compound 0.001 µM, partner dose 0.1 µM)	12100%	536%	66.9%	92.6%	90.5%	1360%	492%	969%	658%	381%	62.7%	96.2%	186%	2820%	231%	101%	1370%	190%	225%
